# Test results taken from the supplement of paper PMC8728848.
# The list shows a part of the results.
# What was measured:
# Test in all cases: glycan array binding signal (z-score within array); higher = stronger binding
# Settings in all cases: glycan notation: IUPAC condensed, linker removed
# [1] = target: Gal(b1-4)GlcNAc(b1-3)Gal(b1-4)GlcNAc(b1-3)[Gal(b1-4)GlcNAc(b1-3)Gal(b1-4)GlcNAc(b1-6)]GalNAc
# Procedure, shortened: (§1)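 Columns mapping to the same glycan were averaged after glycan names were converted to IUPAC-condensed notation. The data come from 3228 arrays in the Consortium for Functional Glycomics database, limited to those with an available protein sequence. Binding is reported as a within-array Z-score averaged across arrays of one protein sequence and across linkers.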
# [2] = target: Gal(b1-4)GlcNAc(b1-3)Gal(b1-4)GlcNAc(b1-6)[Gal(b1-3)]GalNAc
# Procedure, shortened: as §1
# [3] = target: Gal(b1-4)GlcNAc(b1-3)Gal(b1-4)[Fuc(a1-3)]GlcNAc(b1-3)Gal(b1-4)[Fuc(a1-3)]GlcNAc
# Procedure, shortened: as §1
# [4] = target: Gal(b1-4)GlcNAc(b1-3)GalNAc
# Procedure, shortened: as §1
# [5] = target: Gal(b1-4)GlcNAc(b1-3)[Fuc(a1-3)GlcNAc(b1-6)]Gal(b1-4)Glc
# Procedure, shortened: as §1
# [6] = target: Gal(b1-4)GlcNAc(b1-3)[Gal(b1-4)GlcNAc(b1-6)]Gal(b1-4)GlcNAc
# Procedure, shortened: as §1
# [7] = target: Gal(b1-4)GlcNAc(b1-3)[GlcNAc(b1-6)]Gal(b1-4)GlcNAc
# Procedure, shortened: as §1
# [8] = target: Gal(b1-4)GlcNAc(b1-6)Gal(b1-4)GlcNAc
# Procedure, shortened: as §1
# [9] = target: Gal(b1-4)GlcNAc(b1-6)GalNAc
# Procedure, shortened: as §1
# [10] = target: Gal(b1-4)GlcNAc(b1-6)[Gal(b1-3)]GalNAc
# Procedure, shortened: as §1
# [11] = target: Gal(b1-4)GlcNAc(b1-6)[Gal(b1-4)GlcNAc(b1-3)]GalNAc
# Procedure, shortened: as §1
# [12] = target: Gal(b1-4)GlcNAc6P
# Procedure, shortened: as §1
# [13] = target: Gal(b1-6)Gal
# Procedure, shortened: as §1
# [14] = target: Gal3S(b1-3)GalNAc
# Procedure, shortened: as §1
# [15] = target: Gal3S(b1-3)GlcNAc
# Procedure, shortened: as §1
# [16] = target: Gal3S(b1-3)[Fuc(a1-4)]GlcNAc
# Procedure, shortened: as §1
# [17] = target: Gal3S(b1-4)Glc
# Procedure, shortened: as §1
# [18] = target: Gal3S(b1-4)Glc6S
# Procedure, shortened: as §1
# [19] = target: Gal3S(b1-4)GlcNAc
# Procedure, shortened: as §1
# [20] = target: Gal3S(b1-4)[Fuc(a1-3)]Glc6S
# Procedure, shortened: as §1
# [21] = target: Gal3S(b1-4)[Fuc(a1-3)]GlcNAc
# Procedure, shortened: as §1
# [22] = target: Gal3S(b1-4)[Fuc(a1-3)]GlcNAc6S
# Procedure, shortened: as §1
# [23] = target: Gal3S4S(b1-4)GlcNAc
# Procedure, shortened: as §1
# [24] = target: Gal3S6S(b1-4)GlcNAc
# Procedure, shortened: as §1
# [25] = target: Gal3S6S(b1-4)GlcNAc6S
# Procedure, shortened: as §1
# [26] = target: Gal4S(b1-4)GlcNAc
# Procedure, shortened: as §1
# [27] = target: Gal4S6S(b1-4)GlcNAc
# Procedure, shortened: as §1
# [28] = target: Gal6P(b1-4)GlcNAc
# Procedure, shortened: as §1
# [29] = target: Gal6S(b1-3)GlcNAc
# Procedure, shortened: as §1
# [30] = target: Gal6S(b1-3)GlcNAc6S
# Procedure, shortened: as §1
# [31] = target: Gal6S(b1-4)Glc
# Procedure, shortened: as §1
# [32] = target: Gal6S(b1-4)Glc6S
# Procedure, shortened: as §1
# [33] = target: Gal6S(b1-4)GlcNAc
# Procedure, shortened: as §1
# [34] = target: Gal6S(b1-4)GlcNAc6S
# Procedure, shortened: as §1
# [35] = target: GalNAc(a1-3)Gal
# Procedure, shortened: as §1
# [36] = target: GalNAc(a1-3)GalNAc
# Procedure, shortened: as §1
# [37] = target: GalNAc(a1-3)GalNAc(b1-3)Gal(a1-4)Gal(b1-4)Glc
# Procedure, shortened: as §1
# [38] = target: GalNAc(a1-3)GalNAc(b1-3)Gal(a1-4)Gal(b1-4)GlcNAc
# Procedure, shortened: as §1
# [39] = target: GalNAc(b1-3)Gal
# Procedure, shortened: as §1
# [40] = target: GalNAc(b1-3)Gal(a1-4)Gal(b1-4)GlcNAc
# Procedure, shortened: as §1
# [41] = target: GalNAc(b1-3)Gal(a1-4)Gal(b1-4)GlcNAc(b1-3)Gal(b1-4)Glc
# Procedure, shortened: as §1
# [42] = target: GalNAc(b1-3)Gal(a1-6)Gal(b1-4)Glc
# Procedure, shortened: as §1
# [43] = target: GalNAc(b1-3)GalNAc
# Procedure, shortened: as §1
# [44] = target: GalNAc(b1-3)GlcNAc
# Procedure, shortened: as §1
# [45] = target: GalNAc(b1-4)Gal(b1-4)Glc
# Procedure, shortened: as §1
# [46] = target: GalNAc(b1-4)GlcNAc
# Procedure, shortened: as §1
# [47] = target: GalNAc(b1-4)GlcNAc(b1-2)Man
# Procedure, shortened: as §1
# [48] = target: GalNAc(b1-4)GlcNAc(b1-2)Man(a1-3)[GalNAc(b1-4)GlcNAc(b1-2)Man(a1-6)]Man(b1-4)GlcNAc(b1-4)GlcNAc
# Procedure, shortened: as §1
# [49] = target: GalNAc(b1-4)GlcNAc(b1-3)GalNAc(b1-4)GlcNAc
# Procedure, shortened: as §1
# [50] = target: GalNAc(b1-4)GlcNAc6S
# Procedure, shortened: as §1
# [51] = target: GalNAc(b1-6)GalNAc
# Procedure, shortened: as §1
# [52] = target: GalNAc3S(b1-4)GlcNAc
# Procedure, shortened: as §1
# [53] = target: GalNAc3S(b1-4)GlcNAc3S
# Procedure, shortened: as §1
# [54] = target: GalNAc3S(b1-4)[Fuc(a1-3)]GlcNAc
# Procedure, shortened: as §1
# [55] = target: GalNAc4S6S(b1-4)GlcNAc
# Procedure, shortened: as §1
# [56] = target: GalNAc6S(b1-4)GlcNAc
# Procedure, shortened: as §1
# [57] = target: Glc(a1-4)Glc
# Procedure, shortened: as §1
# [58] = target: Glc(a1-4)Glc(a1-4)Glc(a1-4)Glc
# Procedure, shortened: as §1
# [59] = target: Glc(a1-6)Glc(a1-6)Glc
# Procedure, shortened: as §1
# [60] = target: Glc(a1-6)Glc(a1-6)Glc(a1-6)Glc
# Procedure, shortened: as §1
# [61] = target: Glc(b1-4)Glc
# Procedure, shortened: as §1
# [62] = target: Glc(b1-6)Glc
# Procedure, shortened: as §1
# [63] = target: GlcA(b1-3)Gal
# Procedure, shortened: as §1
# [64] = target: GlcA(b1-3)GlcNAc
# Procedure, shortened: as §1
# [65] = target: GlcA(b1-6)Gal
# Procedure, shortened: as §1
# [66] = target: GlcA3S(b1-3)Gal(b1-4)GlcNAc(b1-2)Man
# Procedure, shortened: as §1
# [67] = target: GlcA3S(b1-3)Gal(b1-4)GlcNAc(b1-3)Gal(b1-4)Glc
# Procedure, shortened: as §1
# [68] = target: GlcNAc(a1-3)Gal(b1-4)GlcNAc
# Procedure, shortened: as §1
# [69] = target: GlcNAc(a1-4)Gal(b1-3)GlcNAc
# Procedure, shortened: as §1
# [70] = target: GlcNAc(a1-4)Gal(b1-4)GalNAc
# Procedure, shortened: as §1
# [71] = target: GlcNAc(a1-4)Gal(b1-4)GlcNAc
# Procedure, shortened: as §1
# [72] = target: GlcNAc(a1-4)Gal(b1-4)GlcNAc(b1-3)Gal(b1-4)Glc
# Procedure, shortened: as §1
# [73] = target: GlcNAc(a1-4)Gal(b1-4)GlcNAc(b1-3)Gal(b1-4)GlcNAc
# Procedure, shortened: as §1
# [74] = target: GlcNAc(a1-4)Gal(b1-4)GlcNAc(b1-3)Gal(b1-4)GlcNAc(b1-3)Gal(b1-4)GlcNAc
# Procedure, shortened: as §1
# [75] = target: GlcNAc(a1-4)Gal(b1-4)GlcNAc(b1-3)Gal(b1-4)[Fuc(a1-3)]GlcNAc(b1-3)Gal(b1-4)[Fuc(a1-3)]GlcNAc
# Procedure, shortened: as §1
binder,measurement,setting,value
SabA (Helicobacter pylori) (protein) MGSSHHHHHHSSGLVPRGSHMENLYFQGEDNGFFVSAGYQIGEAVQMVKNTGELKNLNEKYEQLSQYLNQVASLKQSIQNANNIELVNSSLNYLKSFTNNNYNSTTQSPIFNAVQAVITSVLGFWSLYAGNYFTFFVGKKVGDSGQPASVQGNPPFKTIIENCSGIENCAMDQTTYDKMKKLAEDLQAAQTNSATKGNNLCALSGCAATDSTSNPPNSTVSNALNLAQQLMDLIANTKTAMMWKNIVISGVSNTSGAITSTNYPTQYAVFNNIKAMIPILQQAVTLSQSNHTLSASLQAQATGSQTNPKFAKDIYTFAQNQKQVISYAQDIFNLFNSIPAEQYKYLEKAYLKIPNAGSTPTNPYRQVVNLNQEVQTIKNNVSYYGNRVDAALSVARDVYNLKSNQAEIVTAYNDAKTLSEEISKLPHNQVNTKDIVTLPYDKNAPAAGQSNYQINPEQQSNLNQALAAMSNNPFKKVGMISSQNNNGA,glycan array binding signal (z-score),[1],-0.093
same,glycan array binding signal (z-score),[2],-0.494
same,glycan array binding signal (z-score),[3],-0.766
same,glycan array binding signal (z-score),[4],-0.706
same,glycan array binding signal (z-score),[5],-0.526
same,glycan array binding signal (z-score),[6],0.403
same,glycan array binding signal (z-score),[7],-0.202
same,glycan array binding signal (z-score),[8],-0.42
same,glycan array binding signal (z-score),[9],0.556
same,glycan array binding signal (z-score),[10],-0.47
same,glycan array binding signal (z-score),[11],0.063
same,glycan array binding signal (z-score),[12],-0.913
same,glycan array binding signal (z-score),[13],0.44
same,glycan array binding signal (z-score),[14],-0.071
same,glycan array binding signal (z-score),[15],-0.212
same,glycan array binding signal (z-score),[16],0.112
same,glycan array binding signal (z-score),[17],-0.46
same,glycan array binding signal (z-score),[18],0.056
same,glycan array binding signal (z-score),[19],0.24
same,glycan array binding signal (z-score),[20],1.23
same,glycan array binding signal (z-score),[21],0.298
same,glycan array binding signal (z-score),[22],0.398
same,glycan array binding signal (z-score),[23],0.971
same,glycan array binding signal (z-score),[24],0.42
same,glycan array binding signal (z-score),[25],0.24
same,glycan array binding signal (z-score),[26],-0.09
same,glycan array binding signal (z-score),[27],0.19
same,glycan array binding signal (z-score),[28],-0.861
same,glycan array binding signal (z-score),[29],-0.499
same,glycan array binding signal (z-score),[30],0.018
same,glycan array binding signal (z-score),[31],0.222
same,glycan array binding signal (z-score),[32],0.154
same,glycan array binding signal (z-score),[33],-0.205
same,glycan array binding signal (z-score),[34],-0.001
same,glycan array binding signal (z-score),[35],1.43
same,glycan array binding signal (z-score),[36],0.067
same,glycan array binding signal (z-score),[37],0.228
same,glycan array binding signal (z-score),[38],-0.437
same,glycan array binding signal (z-score),[39],-0.002
same,glycan array binding signal (z-score),[40],0.328
same,glycan array binding signal (z-score),[41],-0.399
same,glycan array binding signal (z-score),[42],-0.633
same,glycan array binding signal (z-score),[43],-0.564
same,glycan array binding signal (z-score),[44],-0.566
same,glycan array binding signal (z-score),[45],1.6
same,glycan array binding signal (z-score),[46],0.676
same,glycan array binding signal (z-score),[47],-0.816
same,glycan array binding signal (z-score),[48],2.98
same,glycan array binding signal (z-score),[49],-0.856
same,glycan array binding signal (z-score),[50],-0.616
same,glycan array binding signal (z-score),[51],-0.5
same,glycan array binding signal (z-score),[52],-0.329
same,glycan array binding signal (z-score),[53],-0.673
same,glycan array binding signal (z-score),[54],-0.298
same,glycan array binding signal (z-score),[55],-0.594
same,glycan array binding signal (z-score),[56],0.834
same,glycan array binding signal (z-score),[57],-0.198
same,glycan array binding signal (z-score),[58],-0.046
same,glycan array binding signal (z-score),[59],0.393
same,glycan array binding signal (z-score),[60],1.22
same,glycan array binding signal (z-score),[61],-0.155
same,glycan array binding signal (z-score),[62],-0.052
same,glycan array binding signal (z-score),[63],-0.726
same,glycan array binding signal (z-score),[64],0.992
same,glycan array binding signal (z-score),[65],-0.216
same,glycan array binding signal (z-score),[66],-0.867
same,glycan array binding signal (z-score),[67],-0.243
same,glycan array binding signal (z-score),[68],-0.423
same,glycan array binding signal (z-score),[69],-0.175
same,glycan array binding signal (z-score),[70],-0.451
same,glycan array binding signal (z-score),[71],-0.254
same,glycan array binding signal (z-score),[72],-0.716
same,glycan array binding signal (z-score),[73],-0.512
same,glycan array binding signal (z-score),[74],-0.845
same,glycan array binding signal (z-score),[75],1.45

# 3 entries from above, with tabs.
binder	measurement	setting	value
SabA (Helicobacter pylori) (protein) MGSSHHHHHHSSGLVPRGSHMENLYFQGEDNGFFVSAGYQIGEAVQMVKNTGELKNLNEKYEQLSQYLNQVASLKQSIQNANNIELVNSSLNYLKSFTNNNYNSTTQSPIFNAVQAVITSVLGFWSLYAGNYFTFFVGKKVGDSGQPASVQGNPPFKTIIENCSGIENCAMDQTTYDKMKKLAEDLQAAQTNSATKGNNLCALSGCAATDSTSNPPNSTVSNALNLAQQLMDLIANTKTAMMWKNIVISGVSNTSGAITSTNYPTQYAVFNNIKAMIPILQQAVTLSQSNHTLSASLQAQATGSQTNPKFAKDIYTFAQNQKQVISYAQDIFNLFNSIPAEQYKYLEKAYLKIPNAGSTPTNPYRQVVNLNQEVQTIKNNVSYYGNRVDAALSVARDVYNLKSNQAEIVTAYNDAKTLSEEISKLPHNQVNTKDIVTLPYDKNAPAAGQSNYQINPEQQSNLNQALAAMSNNPFKKVGMISSQNNNGA	glycan array binding signal (z-score)	[57]	-0.198
same	glycan array binding signal (z-score)	[58]	-0.046
same	glycan array binding signal (z-score)	[59]	0.393
